Data published in patent US20250170247A1, “CONJUGATES, AND USES THEREOF” (CITY UNIVERSITY OF HONG KONG, priority 2023, published 2025).
At least one result comes from cells or an extract, where the contact may be indirect. Negatives hold for the conditions tested. Protein sequences can lack the tags named with them.

Biological target: T1, DHX36 (endogenous, HeLa) (Homo sapiens) (UniProt Q9H2U1)
T1 sequence (looked up, limits assumed): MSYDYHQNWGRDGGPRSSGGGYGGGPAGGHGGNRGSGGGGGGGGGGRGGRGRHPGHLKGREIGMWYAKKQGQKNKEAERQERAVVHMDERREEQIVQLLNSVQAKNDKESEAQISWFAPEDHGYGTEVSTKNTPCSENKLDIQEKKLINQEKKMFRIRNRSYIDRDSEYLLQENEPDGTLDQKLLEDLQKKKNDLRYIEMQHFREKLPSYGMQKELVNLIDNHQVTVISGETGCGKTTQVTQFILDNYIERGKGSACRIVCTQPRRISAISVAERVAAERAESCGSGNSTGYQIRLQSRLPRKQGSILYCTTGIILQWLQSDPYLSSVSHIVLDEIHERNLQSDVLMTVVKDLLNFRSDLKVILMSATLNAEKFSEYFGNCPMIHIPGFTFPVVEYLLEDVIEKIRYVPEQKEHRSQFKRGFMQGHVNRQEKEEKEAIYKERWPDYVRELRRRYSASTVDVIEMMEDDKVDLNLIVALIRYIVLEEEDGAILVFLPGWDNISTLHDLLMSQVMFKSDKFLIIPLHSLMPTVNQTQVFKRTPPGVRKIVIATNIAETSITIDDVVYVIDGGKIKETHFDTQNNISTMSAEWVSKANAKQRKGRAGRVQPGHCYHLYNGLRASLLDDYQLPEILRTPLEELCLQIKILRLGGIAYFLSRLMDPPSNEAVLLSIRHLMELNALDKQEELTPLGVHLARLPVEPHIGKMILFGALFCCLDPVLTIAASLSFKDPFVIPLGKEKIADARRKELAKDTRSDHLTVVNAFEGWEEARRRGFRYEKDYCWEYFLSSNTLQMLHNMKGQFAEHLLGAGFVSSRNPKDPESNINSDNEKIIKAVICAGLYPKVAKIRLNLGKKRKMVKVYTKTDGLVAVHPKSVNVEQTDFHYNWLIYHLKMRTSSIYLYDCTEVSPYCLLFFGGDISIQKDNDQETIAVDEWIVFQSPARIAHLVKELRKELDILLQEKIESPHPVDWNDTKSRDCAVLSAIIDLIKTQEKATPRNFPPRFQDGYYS
Assay: binding assay
Conditions: 5'-hexynyl clicked to azide-modified AHPC; little to no merged foci in HeLa, data not shown; protein in cells; label: 3'-FAM; variant of FAM_rG4_A (hTERC rG4 WT-AHPC conjugate)

GAAUUGCGGAGAAUGAACCU [FAM_rG4 mut_A (hTERC rG4 Mut-AHPC conjugate)]
binding result: no binding
